In one series the test system is rat stomach. To be noted: same dose level (300 mg/kg/day) orally, end of 11/2 days.
The test system of series [1] is stomach / gastro-intestinal tract. To be noted: some subjects, doses not greatly in excess of the therapeutic dose; cited from earlier work.

Consider `COc1ccc2cc(C(C)C(=O)O)ccc2c1` (centres unmarked) [compound of formula (I)], for which the gastric irritation result in the series with rat stomach was “very severe gastric irritation”. Moreover, in series [1], the “irritation of the gastro-intestinal tract” value was “can cause severe irritation of the gastro-intestinal tract in some subjects”.

The values above are taken from patent US4420639A, “Aromatic compounds” (Beecham Group Limited, priority 1973, dated 1983).
